Test results: patent US20150147384A1, “Sustained Delivery of Molecules Using Peptide Surfactants and Uses Thereof” (Massachusetts Institute of Technology, priority 2012, published 2015)
Some of these results come from one statement about several compounds together. No end group written: not given here.

Test: Release of carboxyfluorescein (CF) through peptide vesicles
Assay type: physicochemical
Settings: PBS pH 7.4, 20° C.
Protocol: To determine whether the peptide vesicles can be used for drug delivery we measured the release kinetics of the hydrophilic fluorescent probe 5,6-carboxyfluorescein (CF) through the peptide bilayer assemblies. The peptide powder was added into the CF solution in PBS and the suspension was probe-sonicated for 10 min followed by equilibration for 1 hour. Encapsulated CF is strongly quenched and therefore, only the released CF contributes to the fluorescence intensity signal. Released CF was removed by centrifugation at 11,000 rpm for 25 min using Microcon YM-10 membrane tubes (10 kDa cut-off). Then the vesicles were re-suspended in PBS and incubated for 1 hour at 20° C. The newly released CF during incubation was collected by centrifugation through the Microcon membrane and the fluorescence intensity was measured. This process was repeated every 1 hour and a graph was created to show the release kinetics of CF as a function of time.

Substance: KAAAAAA-NH2 [KA6-CONH2]
- time to complete release of CF: 2 to 3 h

Substance: DAAAAAA-OH [DA6-COOH]
- time to complete release of CF: 2 to 3 h
